# Assay results reported in PubChem BioAssay AID1671190 (National Center for Advancing Translational Sciences (NCATS), 2021).
# Chains of the proteins cited; added tags and fusions are not shown.
# UniProt P18054, whole entry, looked up: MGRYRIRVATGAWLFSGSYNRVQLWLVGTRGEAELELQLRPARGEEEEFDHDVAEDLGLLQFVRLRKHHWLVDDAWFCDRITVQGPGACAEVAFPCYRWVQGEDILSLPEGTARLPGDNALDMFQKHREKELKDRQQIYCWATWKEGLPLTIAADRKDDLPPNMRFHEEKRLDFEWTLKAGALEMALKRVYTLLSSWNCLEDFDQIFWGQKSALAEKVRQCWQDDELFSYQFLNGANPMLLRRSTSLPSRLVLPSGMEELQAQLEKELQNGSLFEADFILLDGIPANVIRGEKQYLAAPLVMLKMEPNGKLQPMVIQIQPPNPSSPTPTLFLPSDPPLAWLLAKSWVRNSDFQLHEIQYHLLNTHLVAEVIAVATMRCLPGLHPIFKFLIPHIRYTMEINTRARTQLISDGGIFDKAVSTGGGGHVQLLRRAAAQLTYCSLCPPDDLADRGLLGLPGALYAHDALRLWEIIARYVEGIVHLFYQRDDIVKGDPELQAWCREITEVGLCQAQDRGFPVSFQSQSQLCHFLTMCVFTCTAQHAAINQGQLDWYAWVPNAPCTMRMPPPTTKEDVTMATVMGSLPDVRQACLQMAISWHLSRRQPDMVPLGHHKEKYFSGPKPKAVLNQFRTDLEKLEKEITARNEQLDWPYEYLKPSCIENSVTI
# Several values for one entry are separate records, joined by “and”; a condition that tells them apart may be missing. Identical values can stand only once. The campaign covered roughly 580,000 compounds. About 6,100 (1.1%) were called active. The shares of active, inactive and inconclusive entries below differ from those in the screen. Calls follow the shape of the dose curve; as a rule, active = well fitted inhibition curve with a large enough effect; inconclusive = small, poorly fitted or top-dose-only effect, or another doubt; inactive = no such curve, though single readings can be large or run the other way. Potencies beside an inconclusive call are fits to weak or partial responses and may not hold up.
# Molecular target: Polyunsaturated fatty acid lipoxygenase ALOX12 (Homo sapiens) (UniProt P18054)
# Assay: Primary qHTS assay for inhibitors of human arachidonate 12S-lipoxygenase (ALOX12): Round 2
# Settings: purified 12hLO, xylenol orange hydroperoxide absorbance; activity change, negative = inhibition: at 108 µM (top of the series) unless noted
# How it was run: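 Hydroperoxide product was detected by ferrous iron/xylenol orange as the 573 to 405 nm absorbance ratio. Arachidonic acid at 40 uM (final) was turned over for 30 min at room temperature by 150 nM human 12hLO, pH 7.0 Hepes buffer, after 15 min compound preincubation.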
# % is scaled to controls: 0 for no effect and ±100 for the full control effect; potency is read from the fitted curve at half-maximal effect.
SMILES,"activity change, negative = inhibition",Potency
COCCCNC(=O)c1cc(C)nc2onc(C3CCNCC3)c12,inactive: 8.8% [at 6.33 µM],–
CC(C)CNC(=O)C1CCN(c2oc(-c3ccco3)nc2C#N)CC1,–,"inconclusive: 31.6 µM [inhibitor, partial curve]"
COc1c(/C=N/NC(=O)c2ccncc2)c(CCN(C)C(C)=O)cc2c1OCO2,–,"inconclusive: 25.1 µM [inhibitor, partial curve, poor fit]"
CC(NC(=O)Cc1cccs1)C(c1cccs1)N1CCN(c2ccccc2F)CC1 (stereo not given),–,"inconclusive: 50.1 µM [inhibitor, partial curve, poor fit]"
CCn1cnc2scc(-c3ccc(OC)cc3)c2c1=O,–,"inconclusive: 4.47 µM [inhibitor, full curve, poor fit]"
CN(C)/C=C/C(=O)c1ccc([N+](=O)[O-])c(CS(=O)(=O)c2ccc(Cl)cc2)c1,–,"inconclusive: 39.8 µM [inhibitor, partial curve, poor fit]"
COc1ccc(C(NC(=O)C(C)C)c2c(O)ccc3ccccc23)cc1OC (stereo not given),–,"inconclusive: 126 µM [inhibitor, single point]"
Cn1nnc(NC(=O)CSc2ncn[nH]2)n1,–,"inconclusive: 31.6 µM [inhibitor, partial curve, poor fit]"
CC(C)(C)NC(=S)Nc1cccc(C(F)(F)F)c1,–,"inconclusive: 6.31 µM [inhibitor, full curve, poor fit]"
CCN(CC)S(=O)(=O)c1ccc(N2CCCC2)c(NS(=O)(=O)c2ccc(F)cc2)c1,–,"inconclusive: 56.2 µM [inhibitor, partial curve, poor fit]"
CCc1ccccc1N1CC(C(=O)Nc2cc(S(=O)(=O)N3CCCC3)ccc2Cl)CC1=O (stereo not given),–,"inconclusive: 39.8 µM [inhibitor, partial curve]"
O=C(CSc1n[nH]c(=O)n1C1CC1)N1N=C(c2ccc(Cl)cc2)CC1c1ccco1 (stereo not given),–,"inconclusive: 100 µM [inhibitor, single point]"
O=C(NCc1ccccn1)c1ccc2c(c1)CC(=O)N2Cc1ccc(F)cc1,–,inactive
CN(C)C(=O)C(c1ccccc1)N(C)Cc1ccc2c(c1)OCO2 (stereo not given),–,inactive
Cc1nc(N2CCN(C)CC2)c2cc(-c3ccccc3)sc2n1,–,inactive
COc1ccc(OC)c(CNC(=O)c2ccc(Sc3ccc(C)cc3)c(N)c2)c1,–,inactive
Cc1ccc(CNC(=S)NC2CCC(C(C)(C)C)CC2)cc1 (stereo not given),–,"inconclusive: 22.4 µM [inhibitor, full curve, poor fit]"
COCCn1nnnc1C(c1cc2cc(C)ccc2[nH]c1=O)N1CCN(C2CCCCC2)CC1 (stereo not given),–,inactive
Cc1ccc(NCc2nc3ccccc3n2C)cc1,–,inactive
O=C(c1nc2sccn2c1Br)N1CCC(N2CCCCCC2=O)CC1,–,inactive
Cc1cccc(CNC(=O)CCn2c(=O)c3cccn3c3ccc(F)cc32)c1,–,inactive
Fc1ccc(NC(=S)NC2CC2)cc1Cl,inconclusive: -35.2% [inhibitor],–
CCc1ccc(NC(=O)NCC2CCN(Cc3cccc(Cl)c3)CC2)cc1,–,"inconclusive: 2.51 µM [inhibitor, partial curve, poor fit]"
CN1C(=O)c2cccn2CC1CNC(=O)c1[nH]nc2c1COc1ccccc1-2 (stereo not given),–,inactive

SMILES,"activity change, negative = inhibition",Potency
Clc1ccc(Nc2nnc(Cc3ccncc3)c3ccccc23)cc1,–,"inconclusive: 43.2 µM [inhibitor, single point] and inconclusive: 2.82 µM [inhibitor, full curve]"
C=CCNc1ncnc2ccccc12,–,inactive
Cc1nc2c(C(=O)NCCCN(CC(C)C)CC(C)C)cnn2c(C)c1Cc1c(F)cccc1Cl,–,inactive
CC(C)CN1CCCC(c2nc3ccc(F)cc3c(=O)[nH]2)C1 (stereo not given),–,inactive
CCCCN(CCCC)Cc1cc(=O)oc2cc(C)c(Cl)cc12,–,"inconclusive: 39.8 µM [inhibitor, partial curve, poor fit]"
O=C(c1ccccn1)N1CCC(N2Cc3ccccc3C2=O)CC1,–,"inconclusive: 112 µM [inhibitor, partial curve, poor fit]"
Cc1ccc(C(=O)NC(=S)NCc2ccccc2)cc1Br,–,"inconclusive: 6.31 µM [inhibitor, full curve, poor fit]"
C=CCNC(=O)N1CC[C@H]2CC(=O)N(CCN3CCNC3=O)CC[C@H]2C1,–,inactive
O=c1c2ccccc2[nH]c(=S)n1CCCN1CCC(Cc2ccccc2)CC1,–,"inconclusive: 35.5 µM [inhibitor, single point]"
O=C(NCc1ccco1)c1cccc2c(-c3ccc(F)c(F)c3)coc12,–,"inconclusive: 79.4 µM [inhibitor, partial curve, poor fit]"
N#CC1=C(N)Oc2n[nH]c(-c3cccnc3)c2C1c1ccc([N+](=O)[O-])o1 (stereo not given),–,inactive
CC(=C\C(=O)O)/C(=C/c1ccco1)C(=O)O,–,"inconclusive: 158 µM [inhibitor, single point]"
COC(=O)C1=C(C)N(Cc2ccc(C(F)(F)F)cc2)C(=NCc2cc(OC)c(OC)c(OC)c2)NC1c1cccc(Cl)c1 (stereo not given),–,"inconclusive: 100 µM [inhibitor, partial curve, poor fit]"
FC(F)(F)c1cc(Cl)c2nc(-c3ccco3)c(Cc3ccccc3C(F)(F)F)n2c1,–,active: 10 µM
Cc1ccsc1CN1CCn2c(nnc2[C@@H]2C[C@@H](O)CN2Cc2cccnc2)C1,–,inactive
CCC(C)Sc1nc(O)cc(=O)[nH]1 (stereo not given),–,inactive
CC12CC3CC(C)(C1)CC(C(=O)NC(=S)N1CCCCC1)(C3)C2,–,active: 25.1 µM
O=C1c2ccccc2NC(c2cnc3ccccc3n2)N1O (stereo not given),–,"inconclusive: 79.4 µM [inhibitor, partial curve, poor fit]"
O=C(O)c1c[nH]c2ccc(F)cc2c1=O,–,inactive
N=C1N(c2ccccc2)C(=S)C(=Nc2ccccc2)N1c1ccccc1,–,"inconclusive: 44.7 µM [inhibitor, partial curve, poor fit]"
O=C1CC(c2ccccc2)N(C(=O)C2CC2)CCCN(C(=O)c2ccc3cc[nH]c3c2)CCN1 (stereo not given),–,inactive
COc1ccc(-n2nc(C(=O)NCC(=O)NCCC3=CCCCC3)c3ccccc3c2=O)c(OC)c1,–,"inconclusive: 89.1 µM [inhibitor, single point]"
CC(=O)c1ccc(NC(=O)c2ccc3c(=O)n4c(nc3c2)CCCCC4)cc1,–,inactive
Cc1nc(N2CCN(C(=O)c3ccco3)CC2)c2c3c(sc2n1)CC(C)CC3 (stereo not given),–,inactive

SMILES,"activity change, negative = inhibition",Potency
Cc1ccccc1N1C(=O)CC(Nc2ccc3c(c2)OCO3)C1=O (stereo not given),–,"inconclusive: 56.2 µM [inhibitor, partial curve, poor fit]"
COc1ccc2c(C)c(CC(=O)N3CCN(C(=O)C4COc5ccccc5O4)CC3)c(=O)oc2c1C (stereo not given),–,inactive
COc1ccccc1-c1[nH]ncc1CN1CCCN(S(=O)(=O)c2ccccc2)CCC(=O)NCC1,–,inactive
Cc1ccccc1NCc1ccccc1O,–,"inconclusive: 44.7 µM [inhibitor, partial curve, poor fit]"
COC(=O)c1cccc(COc2ccc(Cl)cc2Cl)c1,–,inactive
N#Cc1ccc(C(C(=O)NC2CCCCC2)n2c(=O)c(-c3ccco3)nc3ccccc32)cc1 (stereo not given),–,inactive
O=C1N(c2ccccc2)c2ccccc2C12CCN(Cc1cccnc1)C2 (stereo not given),inactive: 6.79% [at 6.33 µM],–
CC(C)=CCc1cc(-c2oc3cc(O)cc(O)c3c(=O)c2O)ccc1O,–,active: 35.5 µM
CCCCN(C)CCCNC(=O)Cn1ncc2c3ccccc3n(Cc3ccccc3)c2c1=O,–,"inconclusive: 79.4 µM [inhibitor, partial curve, poor fit]"
CCN(Cc1ccccc1)C(=O)CSc1nc2cn(CC)nc2c(=O)n1Cc1ccc(C)cc1,–,"inconclusive: 79.4 µM [inhibitor, partial curve, poor fit]"
Cc1ccc(S(=O)(=O)Oc2ccccc2C2C3=C(CCCC3=O)OC3=C2C(=O)CCC3)cc1,–,inactive
CCOC(=O)C1CCCN(C(=O)c2ccc(-c3ccc([N+](=O)[O-])cc3)o2)C1 (stereo not given),–,"inconclusive: 35.5 µM [inhibitor, partial curve, poor fit]"
O=C(CNc1ccc(F)c(C(F)(F)F)c1)N1CCNC1=O,–,inactive
O=C(NC1CCOCC1)C1=NO[C@@H]2CN(c3ccc(F)c(Cl)c3)C[C@H]12,–,inactive
C=CCN1c2ccccc2[C@]23C[C@@H](C(=O)OC)N(C(=O)NCCC)C2=NC(C(=O)OC)=C(C(=O)OC)[C@H]13,–,"inconclusive: 11.2 µM [inhibitor, full curve, poor fit]"
Cc1ccc(Cc2c(C)nc3nc(SCC(=O)NC4CCC(C)CC4)nn3c2C)cc1 (stereo not given),–,"inconclusive: 112 µM [inhibitor, partial curve, poor fit]"
COc1ccc(OC)c(NC(=O)C2(C)CCN2C(C)C)c1 (stereo not given),–,"inconclusive: 100 µM [inhibitor, partial curve, poor fit]"
COc1ccc(CCC(=O)Nc2ccc(-c3noc(-c4ccc(OC)c(OC)c4)n3)cc2)cc1,–,inactive
C=CCN1C(=O)c2n[nH]c(C(C)C)c2C1c1ccccc1 (stereo not given),–,inactive
Cc1ccc(NC(=O)Cc2nc(-c3c(N)n(C)c(=O)n(C)c3=O)cs2)c(C)c1,–,"inconclusive: 31.6 µM [inhibitor, single point]"
COc1ccc(-c2cc(-c3ccc(CO)cc3)cn3cncc23)cc1,–,"inconclusive: 14.1 µM [inhibitor, partial curve, poor fit]"
CCOC(=O)C(NC(=O)c1ccccc1)(OCC1(CC)COC1)C(F)(F)F (stereo not given),–,"inconclusive: 5.01 µM [inhibitor, full curve, poor fit]"
